log2 fold change data for 30 targets are collected here from the supplement of paper PMC10849652.

By UniProt entry, the sequences of proteins in these tests, tags left out. Where a name states a change or a piece, a line headed by the entry shows the natural chain unless it says otherwise.
UniProt Q9ULK5: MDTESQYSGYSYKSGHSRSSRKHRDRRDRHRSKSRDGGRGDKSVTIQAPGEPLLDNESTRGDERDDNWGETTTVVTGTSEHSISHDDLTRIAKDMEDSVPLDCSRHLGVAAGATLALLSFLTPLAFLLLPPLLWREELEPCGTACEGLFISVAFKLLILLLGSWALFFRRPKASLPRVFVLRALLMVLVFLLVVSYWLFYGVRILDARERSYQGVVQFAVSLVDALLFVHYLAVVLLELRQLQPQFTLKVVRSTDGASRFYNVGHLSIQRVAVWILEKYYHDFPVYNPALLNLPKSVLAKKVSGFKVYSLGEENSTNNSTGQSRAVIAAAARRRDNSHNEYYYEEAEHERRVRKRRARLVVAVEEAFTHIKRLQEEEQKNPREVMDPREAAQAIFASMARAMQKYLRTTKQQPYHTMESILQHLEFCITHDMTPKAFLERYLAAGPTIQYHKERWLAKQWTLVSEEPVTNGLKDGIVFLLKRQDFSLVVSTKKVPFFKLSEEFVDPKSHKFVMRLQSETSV
UniProt Q9BRU9: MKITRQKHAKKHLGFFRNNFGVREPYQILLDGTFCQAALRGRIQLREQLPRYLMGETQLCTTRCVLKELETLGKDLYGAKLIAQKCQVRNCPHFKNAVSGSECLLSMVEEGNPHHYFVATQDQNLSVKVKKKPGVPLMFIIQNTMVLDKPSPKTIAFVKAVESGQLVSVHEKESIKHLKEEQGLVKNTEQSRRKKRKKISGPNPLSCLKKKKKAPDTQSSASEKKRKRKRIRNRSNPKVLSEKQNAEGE
UniProt O94763, whole entry, looked up: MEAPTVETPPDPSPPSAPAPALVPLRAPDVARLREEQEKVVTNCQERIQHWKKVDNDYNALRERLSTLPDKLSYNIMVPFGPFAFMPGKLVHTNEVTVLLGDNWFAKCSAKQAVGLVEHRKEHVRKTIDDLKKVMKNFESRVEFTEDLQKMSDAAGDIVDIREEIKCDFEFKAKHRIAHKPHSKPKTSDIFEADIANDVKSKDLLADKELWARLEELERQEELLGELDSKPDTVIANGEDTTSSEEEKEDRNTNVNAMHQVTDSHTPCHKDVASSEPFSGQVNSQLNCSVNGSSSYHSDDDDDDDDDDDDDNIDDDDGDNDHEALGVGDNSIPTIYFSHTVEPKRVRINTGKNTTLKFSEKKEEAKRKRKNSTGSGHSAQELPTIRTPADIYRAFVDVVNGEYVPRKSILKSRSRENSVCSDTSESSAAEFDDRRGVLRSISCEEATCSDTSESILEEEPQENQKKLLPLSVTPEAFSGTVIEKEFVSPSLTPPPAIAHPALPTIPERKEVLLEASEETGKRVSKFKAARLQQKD
UniProt Q14135: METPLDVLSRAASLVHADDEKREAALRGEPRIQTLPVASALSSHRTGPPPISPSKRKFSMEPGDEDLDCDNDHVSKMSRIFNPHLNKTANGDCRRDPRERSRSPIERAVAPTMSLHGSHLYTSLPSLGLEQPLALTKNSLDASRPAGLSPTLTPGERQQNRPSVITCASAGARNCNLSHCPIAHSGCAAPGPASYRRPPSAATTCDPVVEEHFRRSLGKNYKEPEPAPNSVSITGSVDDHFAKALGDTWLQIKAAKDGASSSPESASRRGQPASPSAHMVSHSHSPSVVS
UniProt Q9UDW1: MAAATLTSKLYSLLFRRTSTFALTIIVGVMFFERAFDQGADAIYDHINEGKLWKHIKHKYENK
UniProt O14795: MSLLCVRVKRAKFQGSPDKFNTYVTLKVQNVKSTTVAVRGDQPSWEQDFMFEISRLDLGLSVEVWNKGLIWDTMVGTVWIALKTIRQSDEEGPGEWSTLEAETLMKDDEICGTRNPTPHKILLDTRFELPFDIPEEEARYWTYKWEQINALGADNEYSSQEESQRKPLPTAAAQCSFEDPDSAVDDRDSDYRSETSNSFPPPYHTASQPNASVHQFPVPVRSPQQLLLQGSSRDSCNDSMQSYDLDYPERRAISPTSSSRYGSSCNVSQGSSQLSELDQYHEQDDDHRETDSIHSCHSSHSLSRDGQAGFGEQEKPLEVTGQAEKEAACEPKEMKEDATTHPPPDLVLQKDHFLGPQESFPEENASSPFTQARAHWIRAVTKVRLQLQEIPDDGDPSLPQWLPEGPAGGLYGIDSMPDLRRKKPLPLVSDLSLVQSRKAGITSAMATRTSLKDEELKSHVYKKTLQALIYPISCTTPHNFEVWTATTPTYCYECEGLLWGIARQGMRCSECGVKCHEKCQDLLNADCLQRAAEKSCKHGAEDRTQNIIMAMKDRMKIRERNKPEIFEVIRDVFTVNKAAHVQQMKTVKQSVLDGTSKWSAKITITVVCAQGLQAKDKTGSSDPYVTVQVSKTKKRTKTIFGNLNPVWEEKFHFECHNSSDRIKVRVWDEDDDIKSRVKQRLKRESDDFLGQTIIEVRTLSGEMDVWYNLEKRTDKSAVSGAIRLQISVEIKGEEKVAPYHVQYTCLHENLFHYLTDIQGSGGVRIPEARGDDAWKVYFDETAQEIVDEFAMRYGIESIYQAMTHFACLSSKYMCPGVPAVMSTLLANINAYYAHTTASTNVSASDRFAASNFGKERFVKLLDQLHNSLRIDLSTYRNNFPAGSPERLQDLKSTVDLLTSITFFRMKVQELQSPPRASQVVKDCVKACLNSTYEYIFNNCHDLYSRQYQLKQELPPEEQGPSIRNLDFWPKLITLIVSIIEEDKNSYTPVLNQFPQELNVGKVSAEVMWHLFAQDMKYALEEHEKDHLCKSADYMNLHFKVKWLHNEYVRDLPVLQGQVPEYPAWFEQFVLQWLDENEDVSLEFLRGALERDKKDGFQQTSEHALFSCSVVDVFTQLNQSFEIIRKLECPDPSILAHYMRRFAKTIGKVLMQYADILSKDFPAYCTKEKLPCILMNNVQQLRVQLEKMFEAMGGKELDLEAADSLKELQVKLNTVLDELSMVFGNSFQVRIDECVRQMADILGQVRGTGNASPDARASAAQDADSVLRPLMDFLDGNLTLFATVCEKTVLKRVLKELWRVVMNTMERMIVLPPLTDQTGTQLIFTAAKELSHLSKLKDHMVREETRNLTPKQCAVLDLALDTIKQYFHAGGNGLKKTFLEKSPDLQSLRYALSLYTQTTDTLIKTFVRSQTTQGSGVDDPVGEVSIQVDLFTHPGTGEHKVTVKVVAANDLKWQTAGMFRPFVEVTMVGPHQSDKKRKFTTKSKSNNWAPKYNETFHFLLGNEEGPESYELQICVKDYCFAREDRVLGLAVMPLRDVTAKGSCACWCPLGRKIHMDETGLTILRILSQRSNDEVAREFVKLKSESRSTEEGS
UniProt O75385: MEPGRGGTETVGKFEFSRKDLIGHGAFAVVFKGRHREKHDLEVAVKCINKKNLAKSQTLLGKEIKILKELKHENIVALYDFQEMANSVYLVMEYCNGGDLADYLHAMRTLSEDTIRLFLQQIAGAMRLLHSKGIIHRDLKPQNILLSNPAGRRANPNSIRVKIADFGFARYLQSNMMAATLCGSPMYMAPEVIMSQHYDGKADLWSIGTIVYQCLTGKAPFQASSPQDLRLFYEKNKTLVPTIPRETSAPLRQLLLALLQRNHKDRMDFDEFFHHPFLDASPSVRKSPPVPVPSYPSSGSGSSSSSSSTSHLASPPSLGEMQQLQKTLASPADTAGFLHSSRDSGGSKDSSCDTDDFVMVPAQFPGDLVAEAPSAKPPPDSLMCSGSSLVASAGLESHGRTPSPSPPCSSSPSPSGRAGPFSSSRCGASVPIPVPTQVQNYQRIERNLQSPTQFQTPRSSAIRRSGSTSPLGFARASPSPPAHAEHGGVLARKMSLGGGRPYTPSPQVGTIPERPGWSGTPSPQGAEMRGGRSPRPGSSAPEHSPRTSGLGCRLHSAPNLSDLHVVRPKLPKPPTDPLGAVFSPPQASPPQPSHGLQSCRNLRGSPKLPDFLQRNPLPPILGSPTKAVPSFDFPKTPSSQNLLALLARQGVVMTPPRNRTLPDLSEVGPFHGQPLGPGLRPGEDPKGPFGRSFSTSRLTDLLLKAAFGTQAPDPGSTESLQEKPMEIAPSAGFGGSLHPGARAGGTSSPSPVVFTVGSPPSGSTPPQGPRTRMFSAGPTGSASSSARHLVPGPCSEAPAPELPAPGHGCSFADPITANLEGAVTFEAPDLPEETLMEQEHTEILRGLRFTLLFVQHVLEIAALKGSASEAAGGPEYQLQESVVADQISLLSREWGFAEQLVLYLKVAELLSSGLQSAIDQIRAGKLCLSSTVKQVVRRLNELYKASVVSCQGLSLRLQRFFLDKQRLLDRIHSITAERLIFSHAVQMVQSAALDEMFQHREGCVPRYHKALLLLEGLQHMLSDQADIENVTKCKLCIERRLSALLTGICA
UniProt Q9NVE5: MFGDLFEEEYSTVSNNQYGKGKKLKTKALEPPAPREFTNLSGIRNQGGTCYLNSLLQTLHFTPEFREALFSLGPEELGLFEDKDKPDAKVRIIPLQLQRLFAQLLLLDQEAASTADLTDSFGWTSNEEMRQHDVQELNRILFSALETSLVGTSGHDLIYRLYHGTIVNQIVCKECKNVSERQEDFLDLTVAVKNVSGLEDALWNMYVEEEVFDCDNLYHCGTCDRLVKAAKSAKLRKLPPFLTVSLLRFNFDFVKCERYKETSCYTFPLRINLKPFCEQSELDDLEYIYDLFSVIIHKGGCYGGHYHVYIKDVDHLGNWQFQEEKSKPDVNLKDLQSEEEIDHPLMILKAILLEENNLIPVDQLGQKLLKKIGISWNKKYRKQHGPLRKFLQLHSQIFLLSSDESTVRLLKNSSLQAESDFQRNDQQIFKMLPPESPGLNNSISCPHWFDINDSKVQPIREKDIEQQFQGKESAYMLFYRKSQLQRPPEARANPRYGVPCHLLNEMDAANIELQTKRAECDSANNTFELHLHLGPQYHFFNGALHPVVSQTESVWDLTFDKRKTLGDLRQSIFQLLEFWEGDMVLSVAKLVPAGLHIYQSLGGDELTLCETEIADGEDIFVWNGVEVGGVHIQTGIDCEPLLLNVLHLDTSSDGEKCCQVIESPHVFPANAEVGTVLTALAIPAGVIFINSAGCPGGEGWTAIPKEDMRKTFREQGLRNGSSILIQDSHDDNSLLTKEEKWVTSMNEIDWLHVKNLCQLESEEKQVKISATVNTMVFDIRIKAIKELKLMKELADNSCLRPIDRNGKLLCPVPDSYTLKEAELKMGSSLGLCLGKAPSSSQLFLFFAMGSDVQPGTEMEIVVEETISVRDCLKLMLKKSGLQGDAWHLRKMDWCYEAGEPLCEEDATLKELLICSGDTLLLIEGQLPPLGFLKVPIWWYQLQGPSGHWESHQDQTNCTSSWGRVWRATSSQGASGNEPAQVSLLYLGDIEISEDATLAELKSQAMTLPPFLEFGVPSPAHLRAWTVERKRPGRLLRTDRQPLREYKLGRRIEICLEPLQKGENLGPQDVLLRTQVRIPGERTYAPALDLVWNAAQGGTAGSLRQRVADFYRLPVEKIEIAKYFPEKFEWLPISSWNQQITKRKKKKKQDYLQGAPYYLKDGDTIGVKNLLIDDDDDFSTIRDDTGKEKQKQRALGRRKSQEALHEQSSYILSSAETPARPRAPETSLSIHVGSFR
UniProt Q9Y4E8: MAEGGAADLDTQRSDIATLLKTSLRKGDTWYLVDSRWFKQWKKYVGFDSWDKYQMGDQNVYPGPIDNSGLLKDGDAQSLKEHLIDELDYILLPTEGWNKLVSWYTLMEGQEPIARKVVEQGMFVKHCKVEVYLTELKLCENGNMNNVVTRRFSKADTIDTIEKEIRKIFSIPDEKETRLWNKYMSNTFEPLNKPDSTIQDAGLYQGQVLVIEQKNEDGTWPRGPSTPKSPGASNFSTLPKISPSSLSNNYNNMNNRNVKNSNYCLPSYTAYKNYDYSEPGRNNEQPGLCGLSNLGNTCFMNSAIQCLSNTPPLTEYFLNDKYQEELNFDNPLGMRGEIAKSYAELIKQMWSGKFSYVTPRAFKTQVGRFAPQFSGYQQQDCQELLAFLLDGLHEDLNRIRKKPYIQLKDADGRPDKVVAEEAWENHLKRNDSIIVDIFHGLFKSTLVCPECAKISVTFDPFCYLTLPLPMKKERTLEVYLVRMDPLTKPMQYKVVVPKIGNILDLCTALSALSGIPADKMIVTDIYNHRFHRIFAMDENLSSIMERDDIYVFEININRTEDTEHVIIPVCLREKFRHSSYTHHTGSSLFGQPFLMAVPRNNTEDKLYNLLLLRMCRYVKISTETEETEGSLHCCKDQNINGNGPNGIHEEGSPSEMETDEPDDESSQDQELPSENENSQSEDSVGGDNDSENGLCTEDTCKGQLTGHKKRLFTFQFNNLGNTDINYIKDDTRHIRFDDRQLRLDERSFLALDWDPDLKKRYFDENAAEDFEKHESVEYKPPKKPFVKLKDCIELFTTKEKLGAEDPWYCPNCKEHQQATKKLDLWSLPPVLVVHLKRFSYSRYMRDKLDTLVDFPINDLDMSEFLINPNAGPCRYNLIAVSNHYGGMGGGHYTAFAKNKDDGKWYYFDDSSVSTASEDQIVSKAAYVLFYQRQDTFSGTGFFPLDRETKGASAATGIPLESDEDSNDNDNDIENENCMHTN

This is one part of the list.

Compound in the first assay: C1=CC=C(C=C1)[C@H](COC2=CC3=C(C=C2)NC(=O)N3)NC(=O)C4=CC=CN(C4=O)CC5=CC(=C(C=C5)F)F
Briefly: log2 fold change, soluble protein after heating vs DMSO (PISA); higher = thermal stabilisation; K562 lysate, 10 uM; active = over 0.2 and 3.5 SD of the protein, either way, in both replicates (recomputed). An outline of the steps:
(§1)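 Values give the log-two fold change in thermal stability against solvent controls, from duplicates. Crude K562 extract at 1 mg/mL protein, made by dounce homogenisation in PBS pH 7.4 with 1 mM MgCl2, was treated with 10 μM compound for 30 min. After 3 min heating across 48°C-58°C, aliquots were pooled, adjusted to 0.5% NP-40 at 4°C and centrifuged at 21,000xg for 90 min. The supernatant was measured by TMTpro 16plex LC-MS/MS with channel sums equalised.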
Turning to VANGL2 (UniProt Q9ULK5), the log2 fold change was inactive: -0.073.
Consider UPF3A (UniProt Q9H1J1), for which the log2 fold change was inactive: -0.17.
For UTP23 (UniProt Q9BRU9), the log2 fold change is inactive: -0.095.
Still for that read-out and setting: the figure for URI1 isoform 4 (UniProt O94763) is inactive: 0.042; for UTRN isoform 2 (UniProt P46939) it is inactive: 0.026.
In the case of VGLL4 isoform 4 (UniProt Q14135), the log2 fold change is inactive: 0.222.
For VCX3B (UniProt Q9H321), the log2 fold change was inactive: -0.037.

Compound in the next assay: CC1=C(SC2=C1C(=N[C@H](C3=NN=C(N32)C)CC(=O)N)C4=CC=C(C=C4)Cl)C
The description is as above. An outline of the steps:
as §1
On to VANGL2 (UniProt Q9ULK5), for which the log2 fold change is inactive: 0.167.
Regarding UPF3A (UniProt Q9H1J1), the log2 fold change was inactive: 0.142.
Turning to UTP23 (UniProt Q9BRU9), the log2 fold change is inactive: 0.11.
As for URI1 isoform 4 (UniProt O94763), the log2 fold change was inactive: -0.099.
As for UTRN isoform 2 (UniProt P46939), the log2 fold change was inactive: 0.037.
On to VGLL4 isoform 4 (UniProt Q14135), for which the log2 fold change is inactive: 0.038.
Still for that read-out and setting: then VCX3B (UniProt Q9H321), with inactive: 0.037.

Compound in another assay: CC1=C2C(=CC=C1)N=C(N(C2=O)C3=CC=CC=C3C)CN4C=NC5=C(N=CN=C54)N
Described as above. An outline of the steps:
as §1
USP36 (UniProt Q9P275): the log2 fold change was inactive: 0.056.
For the target USB1 (UniProt Q9BQ65), the log2 fold change was inactive: -0.131.
USP6NL isoform 2 (UniProt Q92738): the log2 fold change is inactive: -0.073.
The same measure, in the same setting: then UCP2 (UniProt P55851), with inactive: -0.003; and USP37 (UniProt Q86T82), with inactive: 0.087.
For the target UQCR10 (UniProt Q9UDW1), the log2 fold change is inactive: 0.018.
Take VGF (UniProt O15240): the log2 fold change was inactive: -0.07.
UHRF2 (UniProt Q96PU4): the log2 fold change was inactive: 0.559.
As for VAV2 (UniProt P52735), the log2 fold change is inactive: -0.063.
URB2 (UniProt Q14146): the log2 fold change is inactive: -0.048.
UNC13B isoform 2 (UniProt O14795): the log2 fold change was inactive: 0.122.
Consider ULK1 (UniProt O75385), for which the log2 fold change was inactive: 0.021.
In the case of URB1 (UniProt O60287), the log2 fold change was inactive: 0.031.
On the same count and under the same terms, then USP12 (UniProt O75317), with inactive: 0.007; and USP19 isoform 4 (UniProt O94966), with inactive: 0.068.

Compound in another assay: Cc1sc2c(c1C)C(c1ccc(Cl)cc1)=N[C@@H](CC(=O)OC(C)(C)C)c1nnc(C)n1-2
The assay is described as above. An outline of the steps:
as §1
With UNC119 (UniProt Q13432), the log2 fold change was inactive: 0.072.
Take USP40 isoform 3 (UniProt Q9NVE5): the log2 fold change is inactive: 0.
In the case of VANGL2 (UniProt Q9ULK5), the log2 fold change is inactive: -0.189.
USB1 (UniProt Q9BQ65): the log2 fold change is inactive: 0.
Regarding USP33 (UniProt Q8TEY7), the log2 fold change is inactive: -0.182.
Turning to UTP23 (UniProt Q9BRU9), the log2 fold change is inactive: 0.025.
For the target UMAD1 (UniProt C9J7I0), the log2 fold change was inactive: -0.003.
As to URI1 isoform 4 (UniProt O94763), the log2 fold change was inactive: 0.025.
For the target UQCRB (UniProt E5RHG9), the log2 fold change is inactive: 0.1.
USP15 isoform 3 (UniProt Q9Y4E8): the log2 fold change was inactive: 0.005.
Consider UQCR10 (UniProt Q9UDW1), for which the log2 fold change is inactive: 0.084.
VGF (UniProt O15240): the log2 fold change is inactive: 0.
USP30 (UniProt Q70CQ3): the log2 fold change was inactive: 0.302.
On the same count and under the same terms, then VGLL4 isoform 4 (UniProt Q14135), with inactive: -0.025.
For VAV2 (UniProt P52735), the log2 fold change was inactive: -0.247.
In the case of VCX3B (UniProt Q9H321), the log2 fold change is inactive: -0.079.
Same read-out and setting: then URB2 (UniProt Q14146), with inactive: 0.018.
In the case of UNC13B isoform 2 (UniProt O14795), the log2 fold change was inactive: -0.009.
For the target VASN (UniProt Q6EMK4), the log2 fold change was inactive: -0.017.
The same measure, in the same setting: then ULK1 (UniProt O75385), with inactive: 0.061.
In the case of URB1 (UniProt O60287), the log2 fold change was inactive: 0.015.
Consider USP19 isoform 4 (UniProt O94966), for which the log2 fold change is inactive: -0.133.
